The supplement of paper PMC12067093, “Discovery and optimisation of a covalent ligand for TRIM25 and its application to targeted protein ubiquitination” (Chemical Science, 2025)
Some of the results follow.

Compound: Cc1cc(ccc1-c1ccccc1)C(=O)N1CCCN(CC1)C(=O)CCl [compound 10]
Test: probe-labelled cysteine peptide fold change vs DMSO (competition) (log2 fold change); higher = less target engagement (more negative = stronger competition)
Details: THP-1, incubation time: 4 h
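Further: competitive profiling in live THP-1 cells: cysteine peptides tagged with an iodoacetamide desthiobiotin (IA-DTB) probe, intensity after compound treatment relative to DMSO-treated cells.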

Target	probe-labelled cysteine peptide fold change (10 µM)	probe-labelled cysteine peptide fold change (50 µM)
ILKAP_Q9H0C8_135_EEMQDAHVILNDITEECRPPSSLITR (UniProt Q9H0C8)	-0.29	0.284
IDH3G_P51553_333_NIANPTATLLASCMMLDHLK (UniProt P51553)	0.0642	0.0528
IGF2R_P11717_1042_FVCNDDVYSGPLK (UniProt P11717)	-0.0769	-0.139
IGF2R_P11717_1476_FTCSESQVNSR (UniProt P11717)	-0.0355	-0.0824
IGF2R_P11717_475_EKEDLLCGATDGK (UniProt P11717)	-0.2	-0.183
HYAL3_O43820_356_AAMACSHQR (UniProt O43820)	0.205	0.00605
IARS2_Q9NSE4_1002_YTAESSDTLCPR (UniProt Q9NSE4)	0.0672	-0.0141
INF2_Q27J81_38_LGPQDSDPTEANLESADPELCIR (UniProt Q27J81)	-0.0201	-0.0578
IKZF1_Q13422_254_EETNHSEMAEDLCK (UniProt Q13422)	-0.107	-0.0837
IARS_P41252_433_NNDLCYWVPELVR (UniProt P41252)	0.262	0.366
INPP5D_Q92835_217_KLTTLLCK (UniProt Q92835)	0.196	-0.0738
IARS_P41252_87_RFGWDCHGLPVEYEIDK (UniProt P41252)	0.000826	-0.156
INF2_Q27J81_104_ISDALLQLTCVSCVR (UniProt Q27J81)	0.668	0.713
ILKAP_Q9H0C8_135_KGEREEMQDAHVILNDITEECRPPSSLITR (UniProt Q9H0C8)	-0.211	-0.03
IGF2R_P11717_174_EVPCYVFDEELR (UniProt P11717)	-0.173	-0.0557
IFI35_P80217_193_LCQIGQFTVPLGGQQVPLR (UniProt P80217)	0.247	0.762
HYI_Q5T013_248_GFVGCEYQPR (UniProt Q5T013)	-0.0639	0.13
IFI16_Q16666_351_MDVVGTGQCHNIPCEEGDK (UniProt Q16666)	0.0638	0.278
IMPDH2_P12268_173_DIDFLKEEEHDCFLEEIMTKR (UniProt P12268)	-0.319	-1.01
IMPDH1_P20839_215_GKLPIVNDCDELVAIIAR (UniProt P20839)	0.00979	-0.0553
ING2_Q9H160_124_QMELHSQCFQDPAESER (UniProt Q9H160)	-0.00555	0.098
ING2_Q9H160_34_LLTCYVQDYLECVESLPHDMQR (UniProt Q9H160)	-0.0543	0.0393

Target	probe-labelled cysteine peptide fold change (10 µM)	probe-labelled cysteine peptide fold change (50 µM)
IARS_P41252_87_FGWDCHGLPVEYEIDK (UniProt P41252)	0.0774	-0.184
IDH2_P48735_154_EPIICK (UniProt P48735)	-0.161	0.175
IARS_P41252_336_VCMDFNIIRK (UniProt P41252)	0.0236	-0.432
INPP5F_Q9Y2H2_725_DTLQCIAEMLQITK (UniProt Q9Y2H2)	0.245	0.437
IMPDH1_P20839_215_LPIVNDCDELVAIIAR (UniProt P20839)	0.0535	0.253
ILK_Q13418_422_VALEGLRPTIPPGISPHVCK (UniProt Q13418)	-0.0704	-0.187
ILVBL_A1L0T0_354_KADVIVLAGTVCDFR (UniProt A1L0T0)	0.0545	0.141
ICAM3_P32942_190_DDHGAPFSCR (UniProt P32942)	-0.196	-0.0129
IFT81_Q8WYA0_569_YHYTNCMIK (UniProt Q8WYA0)	0.0851	-0.0457
IGFBP4_P22692_174_EDARPVPQGSCQSELHR (UniProt P22692)	-0.291	0.00294
IFI16_Q16666_351+356_MDVVGTGQCHNIPCEEGDK (UniProt Q16666)	-0.467	-0.24
IGF2R_P11717_1975_GCDVTFEWK (UniProt P11717)	-0.034	-0.0919
IDH1_O75874_269_SEGGFIWACK (UniProt O75874)	-0.0182	-0.166
IFI16_Q16666_737_LTCFELAPK (UniProt Q16666)	-0.11	-0.0776
IDH2_P48735_113_CATITPDEARVEEFK (UniProt P48735)	0.0282	-0.417
INF2_Q27J81_971_QEEVCVIDALLADIRK (UniProt Q27J81)	-0.0792	-0.266
HUWE1_Q7Z6Z7_624_GLQSFVQCQPFER (UniProt Q7Z6Z7)	-0.128	0.121
IGF2R_P11717_814_YYINVCRPLNPVPGCNR (UniProt P11717)	-0.0356	-0.0246
INPP5B_P32019_475_FQFHNTSICVVNSHLAAHIEEYER (UniProt P32019)	0.129	0.0857
IGSF8_Q969P0_127_LQAQDAGIYECHTPSTDTR (UniProt Q969P0)	-0.113	-0.255
INF2_Q27J81_1029_CPASEPGLDATTASESR (UniProt Q27J81)	-0.335	-0.487
IKBKG_Q9Y6K9_131_CQQQMAEDK (UniProt Q9Y6K9)	0.0477	-0.388

Target	probe-labelled cysteine peptide fold change (10 µM)	probe-labelled cysteine peptide fold change (50 µM)
IGF2R_P11717_1349_ETSDCSYLFEWR (UniProt P11717)	0.0429	0.0829
IFT74_Q96LB3_400_AQIEANIVALLEHCSR (UniProt Q96LB3)	0.266	0.147
IARS_P41252_526_ISEVFDCWFESGSMPYAQVHYPFENKR (UniProt P41252)	-3.87e-05	-0.0922
IFT22_Q9H7X7_12_ILFVGPCESGK (UniProt Q9H7X7)	-0.195	-0.174
IGHMBP2_P38935_395_CILAGDHK (UniProt P38935)	-0.0448	0.0895
IGF2R_P11717_420_YSDGDLTLIYFGGDECSSGFQR (UniProt P11717)	-0.0885	0.13
IL6R_P08887_25_CPAQEVAR (UniProt P08887)	-0.299	-0.583
INPP5D_Q92835_736_CYATLK (UniProt Q92835)	0.0662	0.0217
ILKAP_Q9H0C8_221_DGSTATCVLAVDNILYIANLGDSR (UniProt Q9H0C8)	-0.167	-0.322
INPP5D_Q92835_4_VPCWNHGNITR (UniProt Q92835)	-0.0998	-0.773
IDH3G_P51553_236_LGDGLFLQCCR (UniProt P51553)	-0.0541	0.21
HUWE1_Q7Z6Z7_467_LEHEVDLCR (UniProt Q7Z6Z7)	-0.107	0.287
IGF2R_P11717_1461_YVDGDLCPDGIR (UniProt P11717)	-0.0631	0.00319
IKZF1_Q13422_394_EASPSNSCQDSTDTESNNEEQR (UniProt Q13422)	-0.188	0.211
IGF2R_P11717_1927_LWCSTTADYDRDHEWGFCR (UniProt P11717)	-0.112	0.217
INPP1_P49441_10_ELLCVSEK (UniProt P49441)	-0.0523	-0.242
IL18_Q14116_10_AAEPVEDNCINFVAMK (UniProt Q14116)	0.222	0.39
INPP5B_P32019_990_AQEFIHQFLCNPL (UniProt P32019)	-0.214	-0.711
IGF2R_P11717_174_EVPCYVFDEELRK (UniProt P11717)	-0.252	-0.189
INPP5D_Q92835_1050_KEPPPCPEPGILSPSIVLTK (UniProt Q92835)	-0.314	-0.212
INF2_Q27J81_758_QLPIFCQLILR (UniProt Q27J81)	0.0614	-0.00437
IFT27_Q9BW83_166_EMENFEAPFHCLAK (UniProt Q9BW83)	-0.102	-0.227

Three entries from above, as labelled records.
IGF2R_P11717_174_EVPCYVFDEELRK (UniProt P11717)
  probe-labelled cysteine peptide fold change (10 µM): -0.252
  probe-labelled cysteine peptide fold change (50 µM): -0.189
INPP5D_Q92835_1050_KEPPPCPEPGILSPSIVLTK (UniProt Q92835)
  probe-labelled cysteine peptide fold change (10 µM): -0.314
  probe-labelled cysteine peptide fold change (50 µM): -0.212
INF2_Q27J81_758_QLPIFCQLILR (UniProt Q27J81)
  probe-labelled cysteine peptide fold change (10 µM): 0.0614
  probe-labelled cysteine peptide fold change (50 µM): -0.00437

Following part.

Target	probe-labelled cysteine peptide fold change (10 µM)	probe-labelled cysteine peptide fold change (50 µM)
ILK_Q13418_346_FSFQCPGR (UniProt Q13418)	0.0195	-0.319
IGF2R_P11717_893_IHLVCSR (UniProt P11717)	-0.249	-0.0882
IDH3A_P50213_127_TFDLYANVRPCVSIEGYK (UniProt P50213)	0.145	0.0551
IDH2_P48735_308_SSGGFVWACK (UniProt P48735)	0.168	0.23
IDE_P14735_178_FAQFFLCPLFDESCK (UniProt P14735)	0.0901	0.199
IDE_P14735_414_AEGPQEWVFQECK (UniProt P14735)	-0.0642	0.185
ILKAP_Q9H0C8_301_CGVTSVPDIR (UniProt Q9H0C8)	-0.0284	-0.199
IDE_P14735_171+178_FAQFFLCPLFDESCK (UniProt P14735)	-0.195	-0.297
IARS2_Q9NSE4_819_SCQTALVEILDVIVR (UniProt Q9NSE4)	0.131	-0.123
IMPACT_Q9P2X3_137_KKTEEEDVECEDDLILACQPESSLK (UniProt Q9P2X3)	0.00493	-0.493
INPP5A_Q14642_53_PHFMALHCQEFGGK (UniProt Q14642)	-0.142	0.162
HUWE1_Q7Z6Z7_4099_VTYTINPSSHCNPNHLSYFK (UniProt Q7Z6Z7)	-0.171	0.113
IDH3B_O43837_233_LGDGLFLQCCEEVAELYPK (UniProt O43837)	0.321	0.357
HUWE1_Q7Z6Z7_19_KTPTEAPADCR (UniProt Q7Z6Z7)	-0.335	-0.0272
HUWE1_Q7Z6Z7_3635_HLGYTLCK (UniProt Q7Z6Z7)	-0.53	0.14
INPP4A_Q96PE3_540_SLECIIQR (UniProt Q96PE3)	-0.0753	-0.119
IKBKG_Q9Y6K9_54_CLEENQELR (UniProt Q9Y6K9)	0.0646	-0.046
IMPA1_P29218_184_LFCIPVHGIR (UniProt P29218)	0.128	0.0433
IMPACT_Q9P2X3_195_STFQAHLAPVVCPK (UniProt Q9P2X3)	-0.422	-1.61
IMPDH1_P20839_468_FVPYLIAGIQHGCQDIGAR (UniProt P20839)	0.0257	0.232
